Data source: PubChem BioAssay AID1224827 (NIAID, 2016)
Purpose: 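Retest primary hits on a TNF reporter with six siRNAs per gene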 (follow-up of hits). Cell system: RAW264.7 G9 mouse macrophage reporter clone. Reagents: single siRNA against mouse genes, 100 nM siRNA. Duration: siRNA for 2 days, then LPS about 16 h. Challenge: bacterial lipopolysaccharide (LPS), 10 ng/ml, cells fixed after overnight (about 16 h) stimulation. Measured: 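TNF promoter reporter red fluorescence in nuclei, background subtracted, normalised per plate and to non-targeting control siRNA, as z-scores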. Direction: TNF reporter z-score, mean: higher = stronger Tnf promoter reporter signal; gene median z, three same-vendor siRNAs: higher = stronger Tnf reporter signal for the gene. Active means: 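An siRNA is called active when its mean z-score over replicates is at least +2 or at most -2; control wells get no call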.
The whole screen tested about 3,800 reagents; shown is a part drawn at random. In the full data, about 2,200 (57%) got an active call. 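Active means a strong reporter change in either direction; calls are per siRNA, not per gene; qiagen siRNAs gave weaker effects.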 Unmarked entries are inactive. Reagents against one gene are numbered here. Not all columns of the deposit are shown. No sequences are given here.

| gene symbol | reagent | TNF reporter z-score, mean | gene median z, three same-vendor siRNAs |
| --- | --- | --- | --- |
| Eif3i (eukaryotic translation initiation factor 3, subunit I) | 1 | 4.25 (active) | -0.728 |
| Eif3i (eukaryotic translation initiation factor 3, subunit I) | 2 | -0.728 | -0.728 |
| Eif3i (eukaryotic translation initiation factor 3, subunit I) | 3 | -4.56 (active) | -0.728 |
| Eif3i (eukaryotic translation initiation factor 3, subunit I) | 4 | -2.08 (active) | -3.31 |
| Eif3i (eukaryotic translation initiation factor 3, subunit I) | 5 | -3.69 (active) | -3.31 |
| Eif3i (eukaryotic translation initiation factor 3, subunit I) | 6 | -4.7 (active) | -3.31 |
| Rab24 (RAB24, member RAS oncogene family) | 1 | 0.0183 | -4.95 |
| Rab24 (RAB24, member RAS oncogene family) | 2 | -5.07 (active) | -4.95 |
| Rab24 (RAB24, member RAS oncogene family) | 3 | -5.09 (active) | -4.95 |
| Rab24 (RAB24, member RAS oncogene family) | 4 | 4.22 (active) | 0.598 |
| Rab24 (RAB24, member RAS oncogene family) | 5 | 1.07 | 0.598 |
| Rab24 (RAB24, member RAS oncogene family) | 6 | -2.89 (active) | 0.598 |
| Fbxw11 (F-box and WD-40 domain protein 11) | 1 | 8.44 (active) | -0.00504 |
| Fbxw11 (F-box and WD-40 domain protein 11) | 2 | -0.00504 | -0.00504 |
| Fbxw11 (F-box and WD-40 domain protein 11) | 3 | -3.44 (active) | -0.00504 |
| Fbxw11 (F-box and WD-40 domain protein 11) | 4 | 1.59 | -0.699 |
| Fbxw11 (F-box and WD-40 domain protein 11) | 5 | -0.619 | -0.699 |
| Fbxw11 (F-box and WD-40 domain protein 11) | 6 | -2.89 (active) | -0.699 |
| Raet1b (retinoic acid early transcript beta) | 1 | -2.24 (active) | -3.53 |
| Raet1b (retinoic acid early transcript beta) | 2 | -3.53 (active) | -3.53 |
| Raet1b (retinoic acid early transcript beta) | 3 | -4.99 (active) | -3.53 |
| Raet1b (retinoic acid early transcript beta) | 4 | 1.44 | -0.0644 |
| Raet1b (retinoic acid early transcript beta) | 5 | 0.189 | -0.0644 |
| Raet1b (retinoic acid early transcript beta) | 6 | -0.49 | -0.0644 |
| Chchd1 (coiled-coil-helix-coiled-coil-helix domain containing 1) | 1 | -0.772 | -4.02 |
| Chchd1 (coiled-coil-helix-coiled-coil-helix domain containing 1) | 2 | -4.03 (active) | -4.02 |
| Chchd1 (coiled-coil-helix-coiled-coil-helix domain containing 1) | 3 | -4.81 (active) | -4.02 |
| Chchd1 (coiled-coil-helix-coiled-coil-helix domain containing 1) | 4 | 4.38 (active) | 1.09 |
| Chchd1 (coiled-coil-helix-coiled-coil-helix domain containing 1) | 5 | 0.998 | 1.09 |
| Chchd1 (coiled-coil-helix-coiled-coil-helix domain containing 1) | 6 | -0.87 | 1.09 |
| Cct8l1 (chaperonin containing TCP1 subunit 8-like 1) | 1 | -0.0134 | -2.47 |
| Cct8l1 (chaperonin containing TCP1 subunit 8-like 1) | 2 | -2.47 (active) | -2.47 |
| Cct8l1 (chaperonin containing TCP1 subunit 8-like 1) | 3 | -5.02 (active) | -2.47 |
| Cct8l1 (chaperonin containing TCP1 subunit 8-like 1) | 4 | 3.76 (active) | 1.69 |
| Cct8l1 (chaperonin containing TCP1 subunit 8-like 1) | 5 | 1.99 | 1.69 |
| Cct8l1 (chaperonin containing TCP1 subunit 8-like 1) | 6 | 0.0447 | 1.69 |
| Ear2 (eosinophil-associated, ribonuclease A family, member 2) | 1 | 4.7 (active) | -0.889 |
| Ear2 (eosinophil-associated, ribonuclease A family, member 2) | 2 | -1.24 | -0.889 |
| Ear2 (eosinophil-associated, ribonuclease A family, member 2) | 3 | -1.44 | -0.889 |
| Mrpl35 (mitochondrial ribosomal protein L35) | 1 | -2.5 (active) | -3.35 |
| Mrpl35 (mitochondrial ribosomal protein L35) | 2 | -3.61 (active) | -3.35 |
| Mrpl35 (mitochondrial ribosomal protein L35) | 3 | -3.84 (active) | -3.35 |
| Mrpl35 (mitochondrial ribosomal protein L35) | 4 | 0.00663 | -2.34 |
| Mrpl35 (mitochondrial ribosomal protein L35) | 5 | -2.63 (active) | -2.34 |
| Mrpl35 (mitochondrial ribosomal protein L35) | 6 | -3.09 (active) | -2.34 |
| Map1a (microtubule-associated protein 1 A) | 1 | 0.212 | -0.398 |
| Map1a (microtubule-associated protein 1 A) | 2 | 0.559 | -0.398 |
| Map1a (microtubule-associated protein 1 A) | 3 | -3.57 (active) | -0.398 |
| 5830411J07Rik (RIKEN cDNA 5830411J07 gene) | 1 | 1.42 | -1.42 |
| 5830411J07Rik (RIKEN cDNA 5830411J07 gene) | 2 | 0.29 | -1.42 |
| 5830411J07Rik (RIKEN cDNA 5830411J07 gene) | 3 | -2.63 (active) | -1.42 |
| Cat (catalase) | 1 | -0.00975 | -1.49 |
| Cat (catalase) | 2 | -1.8 | -1.49 |
| Cat (catalase) | 3 | -2.16 (active) | -1.49 |
| Cat (catalase) | 4 | -0.123 | -1.16 |
| Cat (catalase) | 5 | -0.119 | -1.16 |
| Cat (catalase) | 6 | -1.95 | -1.16 |

Not a retest: an excerpt of the list.
| gene symbol | reagent | TNF reporter z-score, mean | gene median z, three same-vendor siRNAs |
| --- | --- | --- | --- |
| Rab24 (RAB24, member RAS oncogene family) | 6 | -2.89 (active) | 0.598 |
| Fbxw11 (F-box and WD-40 domain protein 11) | 1 | 8.44 (active) | -0.00504 |
| Fbxw11 (F-box and WD-40 domain protein 11) | 2 | -0.00504 | -0.00504 |
| Fbxw11 (F-box and WD-40 domain protein 11) | 3 | -3.44 (active) | -0.00504 |
| Fbxw11 (F-box and WD-40 domain protein 11) | 4 | 1.59 | -0.699 |
| Fbxw11 (F-box and WD-40 domain protein 11) | 5 | -0.619 | -0.699 |
| Fbxw11 (F-box and WD-40 domain protein 11) | 6 | -2.89 (active) | -0.699 |
